Measurements as given in article PMC7643160, “An ambruticin-sensing complex modulates Myxococcus xanthus development and mediates myxobacterial interspecies communication” (Nature Communications, 2020).
For some of these results: Protein sequences can lack the tags named with them. For some of these results: For at least one entry, the source does not settle the construct or the ends of the probe. For some of these results: A negative result means that nothing was seen under these conditions. For some of these results: At least one verdict rests on a figure or table, not on a statement of the authors.

How the values were obtained:
[1] = test system: AskA + AskB + AskC + MrpC; assay: pull-down; settings: 10 uM ATP, MrpC and kinase binding not mutually exclusive, single complex not proven; Pull-down (purified): 25 mM HEPES pH 7.4, 60 mM KCl, 65 mM NaCl, 8 mM MgCl2, 10 uM ATP, 25 ug/ml poly-dIdC, 10% glycerol, 0.1% Triton X100, 4 C; recombinant protein; label: 5'-biotin (both primers); probe letters rebuilt from the primers and the genome
AskA + AskB + AskC = assay: pull-down; settings: 10 uM ATP, independent of MrpC and ambruticin VS-3, at least a two-membered kinase complex; Pull-down (purified): 25 mM HEPES pH 7.4, 60 mM KCl, 65 mM NaCl, 8 mM MgCl2, 10 uM ATP, 25 ug/ml poly-dIdC, 10% glycerol, 0.1% Triton X100, 4 C; recombinant protein; label: 5'-biotin (both primers); probe letters rebuilt from the primers and the genome
[2] = target: AskB (Myxococcus xanthus DK1622) (UniProt Q1CXM1); assay: pull-down; settings: 10 uM ATP; Pull-down (purified): 25 mM HEPES pH 7.4, 60 mM KCl, 65 mM NaCl, 8 mM MgCl2, 10 uM ATP, 25 ug/ml poly-dIdC, 10% glycerol, 0.1% Triton X100, 4 C; recombinant protein; label: 5'-biotin (both primers); probe letters rebuilt from the primers and the genome
[3] = target: AskA (Myxococcus xanthus DK1622) (UniProt Q1DEE3); assay: pull-down; settings: 10 uM ATP; Pull-down (purified): 25 mM HEPES pH 7.4, 60 mM KCl, 65 mM NaCl, 8 mM MgCl2, 10 uM ATP, 25 ug/ml poly-dIdC, 10% glycerol, 0.1% Triton X100, 4 C; recombinant protein; residues 1-1967; label: 5'-biotin (both primers); probe letters rebuilt from the primers and the genome
[4] = target: T1, AskC (Myxococcus xanthus DK1622) (UniProt Q1CXM2); assay: EMSA; settings: with Cy5-P0552 present; EMSA: 25 mM K-acetate, 8 mM MgSO4, 0.1 mM DTT, 15 mM Tris-HCl pH 7.3, 8% glycerol, 250 ng poly-dIdC, 200 fmol DNA, 15 ul, 30 C 30 min; recombinant protein; protein details: C-terminal His6; label: 5'-HEX (both primers); probe letters rebuilt from the primers and the genome
T1 sequence (looked up, limits assumed): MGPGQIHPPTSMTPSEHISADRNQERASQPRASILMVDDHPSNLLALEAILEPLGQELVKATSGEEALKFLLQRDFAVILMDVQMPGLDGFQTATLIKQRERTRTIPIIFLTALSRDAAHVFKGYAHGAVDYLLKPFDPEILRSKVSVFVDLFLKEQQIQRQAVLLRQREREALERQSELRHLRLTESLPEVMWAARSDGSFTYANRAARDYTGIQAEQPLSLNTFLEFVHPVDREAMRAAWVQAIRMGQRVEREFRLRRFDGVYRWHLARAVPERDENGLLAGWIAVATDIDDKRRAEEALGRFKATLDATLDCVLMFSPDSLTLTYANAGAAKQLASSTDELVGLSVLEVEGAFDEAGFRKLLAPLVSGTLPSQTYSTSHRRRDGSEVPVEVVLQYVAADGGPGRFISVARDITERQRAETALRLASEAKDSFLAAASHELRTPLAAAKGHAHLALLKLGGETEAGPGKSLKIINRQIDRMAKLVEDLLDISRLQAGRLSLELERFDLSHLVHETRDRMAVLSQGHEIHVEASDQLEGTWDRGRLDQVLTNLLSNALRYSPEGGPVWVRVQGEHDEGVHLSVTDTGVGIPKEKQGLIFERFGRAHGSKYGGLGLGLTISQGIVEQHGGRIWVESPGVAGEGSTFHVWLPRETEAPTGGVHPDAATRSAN

[5] = target: AskB (Myxococcus xanthus DK1622) (UniProt Q1CXM1); assay: EMSA; settings: shift to the well, with Cy5-P0552 present, abolished by excess unlabeled PmrpC; EMSA: 25 mM K-acetate, 8 mM MgSO4, 0.1 mM DTT, 15 mM Tris-HCl pH 7.3, 8% glycerol, 250 ng poly-dIdC, 200 fmol DNA, 15 ul, 30 C 30 min; recombinant protein; label: 5'-HEX (both primers); probe letters rebuilt from the primers and the genome
[6] = target: T2, MrpC (Myxococcus xanthus DK1622) (UniProt Q1D244); assay: EMSA; settings: no ambruticin VS-3, four shifted bands, shift quantitative; EMSA: 25 mM K-acetate, 8 mM MgSO4, 0.1 mM DTT, 15 mM Tris-HCl pH 7.3, 8% glycerol, 250 ng poly-dIdC, 200 fmol DNA, 15 ul, 30 C 30 min; recombinant protein; residues 1-248; label: 5'-HEX (both primers); probe letters rebuilt from the primers and the genome
T2 sequence (looked up): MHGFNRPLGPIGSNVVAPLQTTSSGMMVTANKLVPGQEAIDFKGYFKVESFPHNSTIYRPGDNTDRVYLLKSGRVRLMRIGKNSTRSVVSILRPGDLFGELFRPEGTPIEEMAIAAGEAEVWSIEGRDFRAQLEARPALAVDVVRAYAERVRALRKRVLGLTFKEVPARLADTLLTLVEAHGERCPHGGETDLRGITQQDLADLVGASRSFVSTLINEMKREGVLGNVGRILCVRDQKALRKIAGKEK

Sequence	binding result [1]	binding result (AskA + AskB + AskC)	binding result [2]	binding result [3]	binding result [4]	binding result [5]	binding result [6]
TGGCATAACTCCTGGGAAGGAAGCGTAGGGAAGCCGGGCCGTCTGCTTCAGCGGCGAACGGGACTTTCCTTCTCCAAGGTTCGTGCCAGCGGGAATTGAAATGCCGCCGGGACAACACCTCCTGAAATGCCGGGTACTTAGCGCTACAGGCCCGCACCAGAGCCCGTTCTGTGTCCAAAACCTGAAACAGAACGTTCAAACAGTCTGATCAATTTGAACGAAACGTTCAAACCGGGGGCATGAGTGTCGGAGCAGCGACACTGTCCAAGAGTGCTCACAACGCATCCTTCACAGGGAAGGTGTGCACTTGAGGGCTCTGGCTCTGTGCAAGACCGTACTTCTGGAGCTTGCGCTCCAGGGTGGGGCGGCTGATTCCAAGGATC (double strand) [BTN-PmrpC]	binds	binds	binds	binds	–	–	–
TGGCATAACTCCTGGGAAGGAAGCGTAGGGAAGCCGGGCCGTCTGCTTCAGCGGCGAACGGGACTTTCCTTCTCCAAGGTTCGTGCCAGCGGGAATTGAAATGCCGCCGGGACAACACCTCCTGAAATGCCGGGTACTTAGCGCTACAGGCCCGCACCAGAGCCCGTTCTGTGTCCAAAACCTGAAACAGAACGTTCAAACAGTCTGATCAATTTGAACGAAACGTTCAAACCGGGGGCATGAGTGTCGGAGCAGCGACACTGTCCAAGAGTGCTCACAACGCATCCTTCACAGGGAAGGTGTGCACTTGAGGGCTCTGGCTCTGTGCAAGACCGTACTTCTGGAGCTTGCGCTCCAGGGTGGGGCGGCTGATTCCAAGGATC (double strand) [HEX-PmrpC]	–	–	–	–	no binding	binds	binds
